This assay has as its target T1, Zinc-finger of the cerebellum 2 (Zic2) (human (endogenous in DLD-1, SW480, HCT116)), O95409.
T1 chain: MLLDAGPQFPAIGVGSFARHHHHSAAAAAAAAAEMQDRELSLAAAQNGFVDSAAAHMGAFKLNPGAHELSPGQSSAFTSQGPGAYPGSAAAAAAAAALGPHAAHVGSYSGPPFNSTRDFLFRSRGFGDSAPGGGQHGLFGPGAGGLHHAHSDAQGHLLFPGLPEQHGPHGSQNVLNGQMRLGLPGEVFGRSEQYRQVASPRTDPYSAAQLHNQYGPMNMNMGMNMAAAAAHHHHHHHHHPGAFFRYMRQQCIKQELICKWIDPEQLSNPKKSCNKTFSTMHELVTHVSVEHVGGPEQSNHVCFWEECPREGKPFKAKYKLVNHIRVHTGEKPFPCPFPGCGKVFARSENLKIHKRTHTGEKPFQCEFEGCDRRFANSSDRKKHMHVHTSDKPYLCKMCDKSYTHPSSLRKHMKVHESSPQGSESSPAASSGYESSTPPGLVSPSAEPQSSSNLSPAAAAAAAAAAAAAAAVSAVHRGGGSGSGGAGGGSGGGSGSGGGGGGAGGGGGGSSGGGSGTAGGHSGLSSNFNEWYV
As to the kind of experiment: co-IP; lysates of DLD-1, SW480 and HCT116 cells in Triton X-100 lysis buffer (150 mM NaCl, 0.5% NP-40, Tris-HCl pH 8.0, glycerol) with phosphatase and protease inhibitors; Thermo Scientific Pierce Co-IP kit; detected by western blot. The settings on record: remark: other sources report otherwise. For orientation: A western blot detects proteins with antibodies after separation by electrophoresis.

Results are given in words; binding and its absence hold for the method and conditions named. In cells and extracts the contact can be indirect. Some binding calls cover weakened binding; strength is not graded here.

B1: β-catenin, P35222 1-781 (protein)
chain: MATQADLMELDMAMEPDRKAAVSHWQQQSYLDSGIHSGATTTAPSLSGKGNPEEEDVDTSQVLYEWEQGFSQSFTQEQVADIDGQYAMTRAQRVRAAMFPETLDEGMQIPSTQFDAAHPTNVQRLAEPSQMLKHAVVNLINYQDDAELATRAIPELTKLLNDEDQVVVNKAAVMVHQLSKKEASRHAIMRSPQMVSAIVRTMQNTNDVETARCTAGTLHNLSHHREGLLAIFKSGGIPALVKMLGSPVDSVLFYAITTLHNLLLHQEGAKMAVRLAGGLQKMVALLNKTNVKFLAITTDCLQILAYGNQESKLIILASGGPQALVNIMRTYTYEKLLWTTSRVLKVLSVCSSNKPAIVEAGGMQALGLHLTDPSQRLVQNCLWTLRNLSDAATKQEGMEGLLGTLVQLLGSDDINVVTCAAGILSNLTCNNYKNKMMVCQVGGIEALVRTVLRAGDREDITEPAICALRHLTSRHQEAEMAQNAVRLHYGLPVVVKLLHPPSHWPLIKATVGLIRNLALCPANHAPLREQGAIPRLVQLLVRAHQDTQRRTSMGGTQQQFVEGVRMEEIVEGCTGALHILARDVHNRIVIRGLNTIPLFVQLLYSPIENIQRVAAGVLCELAQDKEAAEAIEAEGATAPLTELLHSRNEGVATYAAAVLFRMSEDKPQDYKKRLSVELTSSLFRTEPMAWNETADLGLDIGAQGEPLGYRQDDPSYRSFHSGGYGQDALGMDPMMEHEMGGHHPGADYPVDGLPDLGHAQDLMDGLPPGDSNQLAWFDTDL
Take B1: the binding result was “binds”.

Values taken from PMC8184991.
